No constants are given. Whether binding was seen depends on the method and setting. Binding seen in cells or lysates may run through a third protein. Some binding calls cover weakened binding; strength is not graded here.
Tests used:
[1] = biological target: T1, γ-glutamyl transpeptidase 7 (GGT7), overexpressed (UniProt Q9UJ14); experiment: co-IP; MIA PaCa-2 cells transfected with GGT7 and wild-type TXNDC12 (WT) or cysteine-mutated TXNDC12 (CS); IP with anti-His antibody on Protein A+G magnetic beads; Western blot
T1 sequence: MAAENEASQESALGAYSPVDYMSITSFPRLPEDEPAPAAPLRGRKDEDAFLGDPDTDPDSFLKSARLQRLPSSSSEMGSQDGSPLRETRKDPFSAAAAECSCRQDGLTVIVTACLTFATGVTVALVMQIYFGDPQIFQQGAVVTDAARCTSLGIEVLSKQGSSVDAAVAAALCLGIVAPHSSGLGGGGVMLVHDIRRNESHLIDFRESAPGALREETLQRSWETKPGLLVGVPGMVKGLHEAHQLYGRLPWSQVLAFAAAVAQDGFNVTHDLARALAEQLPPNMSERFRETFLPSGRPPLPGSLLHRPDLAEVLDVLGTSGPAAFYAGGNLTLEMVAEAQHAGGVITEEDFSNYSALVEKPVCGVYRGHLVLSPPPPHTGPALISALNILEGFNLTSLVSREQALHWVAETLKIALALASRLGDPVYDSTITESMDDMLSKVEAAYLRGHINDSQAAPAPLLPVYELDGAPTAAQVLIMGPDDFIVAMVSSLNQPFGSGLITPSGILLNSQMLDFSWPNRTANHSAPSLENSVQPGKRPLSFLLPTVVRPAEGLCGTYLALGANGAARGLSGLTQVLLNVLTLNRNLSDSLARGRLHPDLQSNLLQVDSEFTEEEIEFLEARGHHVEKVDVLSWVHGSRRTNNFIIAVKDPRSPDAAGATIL

Sequences of proteins named here, by UniProt entry; tags and fusion partners are left off. A change or cut given only in a name is not applied to a line headed by its entry. A line that says so, or that is headed by a name, gives the form on record, which may keep a tag or linker. Residues count along the entry.
Thioredoxin domain-containing protein 12 (TXNDC12), endogenous in MIA PaCa-2 (O95881, residues 27-172): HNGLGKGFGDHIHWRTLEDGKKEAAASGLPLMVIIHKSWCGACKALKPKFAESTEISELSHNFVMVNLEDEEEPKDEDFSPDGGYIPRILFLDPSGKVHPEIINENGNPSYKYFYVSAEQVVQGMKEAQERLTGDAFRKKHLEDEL
TXNDC12 mutant construct (both Cys66 and Cys69 replaced by serine, CS) (O95881, form named): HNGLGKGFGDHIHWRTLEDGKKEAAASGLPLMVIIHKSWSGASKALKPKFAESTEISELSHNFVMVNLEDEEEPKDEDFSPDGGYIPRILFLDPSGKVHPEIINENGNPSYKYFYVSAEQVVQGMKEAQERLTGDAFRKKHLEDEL

[2] = biological target: T1, γ-glutamyl transpeptidase 7 (GGT7), overexpressed; experiment: co-IP; HEK293 cells transfected with GGT7 and TXNDC12 (full-length or fragments), lysed 48 h after transfection; IP with His or TXNDC12 antibody (fragments: anti-His) on Protein A+G magnetic beads, 4 °C 12-18 h; Western blot
[3] = biological target: T1, γ-glutamyl transpeptidase 7 (GGT7), overexpressed; experiment: co-IP; MIA PaCa-2 cells overexpressing GGT7, lysed 48 h after transfection; IP with TXNDC12 or His antibody (5 μg) on Protein A+G magnetic beads, 4 °C 12-18 h, IgG control; Western blot

Row | Substance | binding [1] | binding [2] | binding [3]
1 | Thioredoxin domain-containing protein 12 (TXNDC12), full-length wild type, overexpressed (from UniProt O95881 27-172) | binds | binds | 
2 | TXNDC12 mutant construct (both Cys66 and Cys69 replaced by serine, CS) (from UniProt O95881 27-172) | no binding |  | 
3 | Thioredoxin domain-containing protein 12 (TXNDC12), endogenous in MIA PaCa-2 (from UniProt O95881 27-172) |  |  | binds

From paper PMC11190766
